About 7,500 (2.1%) of roughly 360,000 compounds were called active. Inconclusive means that the source gave no clear call. Such entries were picked first, then a sample of the others. Calls come from the whole dose curve; as a rule, active = well fitted inhibition curve with a large enough effect; inconclusive = small, poorly fitted or top-dose-only effect, or effect the other way; inactive = flat fitted curve, though single readings scatter. A potency beside an inconclusive call is a rough fit, not a confirmed value.
assay: Nrf2 qHTS screen for inhibitors; details: A549 ARE-Fluc reporter, luciferase luminescence, 18-24 h; activity change, negative = inhibition: at 46 µM (top of the series); note: nearly all actives have a fitted effect of over 60% in size
Method in brief: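 Nrf2 activity is the BugLite luminescence, read 15 min after reagent at room temperature, following CellTiter-Fluor cytotoxicity readout (30 min, 37C). Compound titrations were applied for 18-24 h to 5000 A549 ARE_Fluc cells/well in 5% FBS OPTI-MEM.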
% is set by controls: 0 for no effect and ±100 for the full control effect; potency is the fitted concentration of half-maximal effect.

Compound | activity change, negative = inhibition | Potency
CCCn1c(N)c(N(CCOC)C(=O)c2cccc(S(=O)(=O)N3CCCc4ccccc43)c2)c(=O)[nH]c1=O | inactive: 10.9% | 
COC(=O)CCN(c1ccccc1)S(=O)(=O)c1cc(-c2cc(C)no2)ccc1OC |  | inconclusive: 2.59 µM [falling, partial curve, poor fit]
CSc1cccc(-n2c(C)cc(C(N)=O)c2C)c1 |  | inconclusive: 18.4 µM [falling, partial curve, poor fit]
CCCc1cc(C(=O)Nc2nccs2)cs1 |  | inconclusive: 0.366 µM [activator, full curve]
c1ccc(C(c2nnnn2C2CCCC2)N2CCCCCC2)nc1 (configuration not stated) | inactive: -10.5% | 
O=[N+]([O-])c1ccc(CN2CCN(c3ccc4ccccc4n3)CC2)cc1 |  | inconclusive: 9.2 µM [falling, partial curve, poor fit]
Cc1cc(NC(=O)COC(=O)c2cc([N+](=O)[O-])ccc2N2CCOCC2)ccc1Br |  | active: 18.4 µM
Cc1ccccc1OCC(=O)N1CCCc2ccccc21 |  | inconclusive: 13 µM [activator, partial curve]
Cc1c(C(=O)N2CCN(c3cccc(Cl)c3)CC2)cccc1[N+](=O)[O-] |  | inconclusive: 23.1 µM [falling, partial curve, poor fit]
COc1ccc(/C=C/C(=O)Nc2ccccc2C(=O)O)cc1 |  | inconclusive: 29.1 µM [falling, single point]
CCC(Sc1nncn2c1cc1oc(C)cc12)C(=O)Nc1ccc(F)cc1 (configuration not stated) |  | inconclusive: 29.1 µM [falling, single point]
CC(C)C[C@H](NC(=O)OC(C)(C)C)C(=O)N[C@@H](CO)[C@H](O)[C@@H]1C[C@@H]1C(=O)NC1CCCCC1 | inactive: 17% | 
CCn1nnnc1SCC(=O)N1CCc2ccccc21 |  | inconclusive: 14.6 µM [activator, partial curve, poor fit]
O=C(Nc1ccc(C(=O)N2CCCC2)cc1)c1cccc(C(F)(F)F)c1 |  | inconclusive: 25.9 µM [falling, partial curve, poor fit]
O=C(Nc1ccccc1C(=O)Nc1ccccc1)c1cccs1 | inactive: -9.76% | 
C=CCN1c2ccccc2[C@]23C[C@@H](C(=O)OC)N(C(=O)c4ccc(Br)cc4)C2=NC(C(=O)OC)=C(C(=O)OC)[C@H]13 |  | inconclusive: 29.1 µM [falling, single point]
Nn1c(SCC(=O)NCc2ccc3c(c2)OCO3)nnc1C(F)(F)F |  | inconclusive: 20.6 µM [falling, single point]
Cc1ccc(Sc2ccc(/C=C3/C(=O)NN(c4ccccc4)C3=O)o2)cc1 |  | inconclusive: 6.51 µM [activator, full curve, poor fit]
COC(=O)c1[nH]c2ccc(F)cc2c1NC(=O)CCN1CC(C)OC(C)C1 (configuration not stated) | inactive: 4.05% | 
CC(=O)N1CCSc2ccc(S(=O)(=O)Nc3ccccc3C)cc21 |  | active: 13 µM
COc1cccc(-c2csc(NC3OC(=O)c4c3ccc(OC)c4OC)n2)c1 (configuration not stated) |  | inconclusive: 20.6 µM [activator, partial curve]

Compound | activity change, negative = inhibition | Potency
N#Cc1c(C(F)(F)F)cc(-c2ccccc2Cl)[nH]c1=O |  | inconclusive: 8.2 µM [falling, partial curve, poor fit]
COc1cccc(CCNC(=O)c2cc(COc3c(F)cccc3F)on2)c1 |  | inconclusive: 23.1 µM [falling, single point]
Cc1ccc(Cn2cccc(NC(=O)c3ccco3)c2=O)cc1 |  | inconclusive: 2.59 µM [activator, single point]
Cc1ccc(C(=O)NNC(=O)c2ccoc2C)s1 |  | inconclusive: 25.9 µM [activator, partial curve, poor fit]
C/C(=N/Nc1ccc([N+](=O)[O-])cc1)c1ccc(C)cc1C |  | inconclusive: 29.1 µM [activator, single point]
O=C(Nc1ccc(N2CCCCCC2)cc1)c1ccc[nH]1 |  | inconclusive: 4.11 µM [activator, partial curve]
COCCNC(=O)c1ccc2nc(Cc3ccc(OC)c(OC)c3)oc2c1 |  | inconclusive: 23.1 µM [activator, partial curve]
CCOc1ccc2oc(=O)cc(CN3CCN(C(=O)c4ccc(F)cc4)CC3)c2c1 | inactive: 11.7% | 
CNC(=O)c1c(Br)cnn1-c1ccc(C)cc1 |  | inconclusive: 10.3 µM [activator, partial curve]
C=CCSc1nnc(NC(=O)c2ccc(NC(C)=O)cc2)s1 |  | inconclusive: 29.1 µM [falling, single point]
COc1ccc(N2CCN(C(=O)Cc3ccc(-n4c(=O)[nH]c5ccccc5c4=O)cc3)CC2)cc1 |  | inconclusive: 16.4 µM [falling, partial curve, poor fit]
O=C(NCCc1ccccc1)C1CCN(C(=O)Nc2ccccc2)CC1 |  | inconclusive: 13 µM [activator, partial curve]
O=C1CCCC2=C1C(c1ccc(O)c(O)c1)c1c(ccc3ncccc13)N2 (configuration not stated) |  | inconclusive: 29.1 µM [activator, single point]
COc1ccc(C2CCCN2C(=O)Nc2ccc(Cl)cc2)cc1OC (configuration not stated) |  | inconclusive: 29.1 µM [falling, single point]
O=C1c2ccccc2C(Nc2cccc(C(F)(F)F)c2)N1Cc1ccco1 (configuration not stated) |  | inconclusive: 25.9 µM [falling, single point]
CCc1nc(NCc2ccc3c(c2)OCO3)c2oc3ccccc3c2n1 |  | inconclusive: 32.6 µM [falling, single point]
O=C(CCl)N1N=C(c2ccco2)CC1c1ccco1 (configuration not stated) | inactive: 16.6% | 
Cc1cccc(NC2SC(=O)N(c3ccccc3)C2=O)c1 (configuration not stated) |  | inconclusive: 20.6 µM [activator, partial curve]
O=C(N/N=C\c1ccccc1F)c1ccc(-c2ccccc2)cc1 | inactive: 1.58% | 
CCc1c(C)nc2cc(-c3ccc(OC)c(OC)c3)nn2c1NCC1CC1 |  | inconclusive: 20.6 µM [falling, partial curve, poor fit]
O=C1NC2(CCCCCC2)C(=O)N1Cc1ccc([N+](=O)[O-])cc1 |  | inconclusive: 16.4 µM [falling, partial curve, poor fit]

One compound at a time (already shown):
`O=C(NCCc1ccccc1)C1CCN(C(=O)Nc2ccccc2)CC1` is listed with Potency: inconclusive: 13 µM [activator, partial curve]
`O=C(CCl)N1N=C(c2ccco2)CC1c1ccco1` (configuration not stated) is listed with activity change, negative = inhibition: inactive: 16.6%
